Patent US20260115304A1 (priority 2023, published 2026)

Test: general procedure: solution-phase peptide synthesis; HATU/DIPEA; HOBt/DIPEA for carbonate coupling to MMAE
Settings: trifluoroacetate; for conjugation yield: conjugation step

Row | Substance | conjugation yield | step yield (late stage modification step) | step yield (coupling step)
1 | (2S,3R,4S,5S,6S)-2-(2-amino-4-((5S,8S,11S,12R)-11-((S)-sec-butyl)-12-(2-((S)-2-((1R,2R)-3-(((1S,2R)-1-hydroxy-1-phenylpropan-2-yl)amino)-1-methoxy-2-methyl-3-oxopropyl)pyrrolidin-1-yl)-2-oxoethyl)-5,8-diisopropyl-4,10-dimethyl-3,6,9-trioxo-2,13-dioxa-4,7,10-triazatetradecyl)phenoxy)-6-(methoxycarbonyl)tetrahydro-2H-pyran-3,4,5-triyl triacetate | 63.9% yield |  | 
2 | (2,3S,4S,5R,6S)-6-(2-((R)-26-amino-25-(2,5-dioxo-2,5-dihydro-1H-pyrrol-1-yl)-17,21-dioxo-4,7,10,13,22-pentaoxa-16,20-diazahexacosanamido)-4-((5S,8S,11S,12R)-11-((S)-sec-butyl)-12-(2-((S)-2-((1R,2R)-3-(((1S,2R)-1-hydroxy-1-phenylpropan-2-yl)amino)-1-methoxy-2-methyl-3-oxopropyl)pyrrolidin-1-yl)-2-oxoethyl)-5,8-diisopropyl-4,10-dimethyl-3,6,9-trioxo-2,13-dioxa-4,7,10-triazatetradecyl)phenoxy)-3,4,5-trihydroxytetrahydro-2H-pyran-2-carboxylic acid |  | 56.2% | 
3 | (2S,3S,4S,5R,6S)-6-(2-((R,E)-13-amino-12-(2,5-dioxo-2,5-dihydro-1H-pyrrol-1-yl)-8-oxo-4,9-dioxa-3,7-diazatridec-2-en-2-yl)-4-((5S,8S,11S,12R)-11-((S)-sec-butyl)-12-(2-((S)-2-((1R,2R)-3-(((1S,2R)-1-hydroxy-1-phenylpropan-2-yl)amino)-1-methoxy-2-methyl-3-oxopropyl)pyrrolidin-1-yl)-2-oxoethyl)-5,8-diisopropyl-4,10-dimethyl-3,6,9-trioxo-2,13-dioxa-4,7,10-triazatetradecyl)phenoxy)-3,4,5-trihydroxytetrahydro-2H-pyran-2-carboxylic acid |  | 42.2% | 
4 | (2S,3S,4S,5R,6S)-6-(2-((R)-32-amino-31-(2,5-dioxo-2,5-dihydro-1H-pyrrol-1-yl)-23,27-dioxo-4,7,10,13,16,19,28-heptaoxa-22,26-diazadotriacontanamido)-4-((5S,8S,11S,12R)-11-((S)-sec-butyl)-12-(2-((S)-2-((1R,2R)-3-(((1S,2R)-1-hydroxy-1-phenylpropan-2-yl)amino)-1-methoxy-2-methyl-3-oxopropyl)pyrrolidin-1-yl)-2-oxoethyl)-5,8-diisopropyl-4,10-dimethyl-3,6,9-trioxo-2,13-dioxa-4,7,10-triazatetradecyl)phenoxy)-3,4,5-trihydroxytetrahydro-2H-pyran-2-carboxylic acid |  | 81.2% | 
5 | tert-butyl(S)-40-((((9H-fluoren-9-yl)methoxy)carbonyl)amino)-1-amino-3,6,9,12,15,18,21,24,27,30,33,36-dodecamethyl-1,4,7,10,13,16,19,22,25,28,31,34,37-tridecaoxo-3,6,9,12,15,18,21,24,27,30,33,36-dodecaazahentetracontan-41-oate |  |  | 71.5% yield
6 | (2S,3S,4S,5R,6S)-6-(2-(3-((((R)-4-amino-3-(2,5-dioxo-2,5-dihydro-1H-pyrrol-1-yl) butoxy)carbonyl)amino)propanamido)-4-((5S,8S,11S,12R)-11-((S)-sec-butyl)-12-(2-((S)-2-((1R,2R)-3-(((1S,2R)-1-hydroxy-1-phenylpropan-2-yl)amino)-1-methoxy-2-methyl-3-oxopropyl)pyrrolidin-1-yl)-2-oxoethyl)-5,8-diisopropyl-4,10-dimethyl-3,6,9-trioxo-2,13-dioxa-4,7,10-triazatetradecyl)phenoxy)-3,4,5-trihydroxytetrahydro-2H-pyran-2-carboxylic acid |  | 75.3% | 
7 | (2S,3S,4S,5R,6S)-6-(4-((5S,8S,11S,12R)-11-((S)-sec-butyl)-12-(2-((S)-2-((1R,2R)-3-(((1S,2R)-1-hydroxy-1-phenylpropan-2-yl)amino)-1-methoxy-2-methyl-3-oxopropyl)pyrrolidin-1-yl)-2-oxoethyl)-5,8-diisopropyl-4,10-dimethyl-3,6,9-trioxo-2,13-dioxa-4,7,10-triazatetradecyl)-2-((E)-1-((2-(4-(5-(methylsulfonyl)-1,2,4-thiadiazol-3-yl)benzamido) ethoxy)imino)ethyl)phenoxy)-3,4,5-trihydroxytetrahydro-2H-pyran-2-carboxylic acid | 40.5% |  | 
8 | (2S,3S,4S,5R,6S)-6-(2-((R)-38-amino-37-(2,5-dioxo-2,5-dihydro-1H-pyrrol-1-yl)-29,33-dioxo-4,7,10,13,16,19,22,25,34-nonaoxa-28,32-diazaoctatriacontanamido)-4-((5S,8S,11S,12R)-11-((S)-sec-butyl)-12-(2-((S)-2-((1R,2R)-3-(((1S,2R)-1-hydroxy-1-phenylpropan-2-yl)amino)-1-methoxy-2-methyl-3-oxopropyl)pyrrolidin-1-yl)-2-oxoethyl)-5,8-diisopropyl-4,10-dimethyl-3,6,9-trioxo-2,13-dioxa-4,7,10-triazatetradecyl)phenoxy)-3,4,5-trihydroxytetrahydro-2H-pyran-2-carboxylic acid |  | 70.4% yield | 
9 | (42S,52R)-53-amino-42-((3-((5-((5S,8S,11S,12R)-11-((S)-sec-butyl)-12-(2-((S)-2-((1R,2R)-3-(((1S,2R)-1-hydroxy-1-phenylpropan-2-yl)amino)-1-methoxy-2-methyl-3-oxopropyl)pyrrolidin-1-yl)-2-oxoethyl)-5,8-diisopropyl-4,10-dimethyl-3,6,9-trioxo-2,13-dioxa-4,7,10-triazatetradecyl)-2-(((2S,3R,4S,5S,6S)-6-carboxy-3,4,5-trihydroxytetrahydro-2H-pyran-2-yl)oxy)phenyl)amino)-3-oxopropyl)carbamoyl)-52-(2,5-dioxo-2,5-dihydro-1H-pyrrol-1-yl)-4,4-dimethyl-8,36,44,48-tetraoxo-12,15,18,21,24,27,30,33,49-nonaoxa-4,9,37,43,47-pentaazatripentacontan-4-ium-1-sulfonate |  | 54.2% | 
10 | (2S,3S,4S,5R,6S)-6-(4-((5S,8S,11S,12R)-11-((S)-sec-butyl)-12-(2-((S)-2-((1R,2R)-3-(((1S,2R)-1-hydroxy-1-phenylpropan-2-yl)amino)-1-methoxy-2-methyl-3-oxopropyl)pyrrolidin-1-yl)-2-oxoethyl)-5,8-diisopropyl-4,10-dimethyl-3,6,9-trioxo-2,13-dioxa-4,7,10-triazatetradecyl)-2-((S)-42-(4-(5-(methylsulfonyl)-1,2,4-thiadiazol-3-yl)benzamido)-39,43-dioxo-2,5,8,11,14,17,20,23,26,29,32,35-dodecaoxa-38,44-diazaheptatetracontan-47-amido)phenoxy)-3,4,5-trihydroxytetrahydro-2H-pyran-2-carboxylic acid | 38.8% yield |  | 
11 | (2S,3S,4S,5R,6S)-6-(2-((6S,31S,32S,33R,34S,38S,39R,40R,41R)-6-(3-((((R)-4-amino-3-(2,5-dioxo-2,5-dihydro-1H-pyrrol-1-yl) butoxy)carbonyl)amino)propanamido)-31,32,33,34,38,39,40,41,42-nonahydroxy-36-methyl-5,9,25,30-tetraoxo-13, 16, 19,22-tetraoxa-4,10,26,29,36-pentaazadotetracontanamido)-4-((5S,8S,11S,12R)-11-((S)-sec-butyl)-12-(2-((S)-2-((1R,2R)-3-(((1S,2R)-1-hydroxy-1-phenylpropan-2-yl)amino)-1-methoxy-2-methyl-3-oxopropyl)pyrrolidin-1-yl)-2-oxoethyl)-5,8-diisopropyl-4,10-dimethyl-3,6,9-trioxo-2,13-dioxa-4,7,10-triazatetradecyl)phenoxy)-3,4,5-trihydroxytetrahydro-2H-pyran-2-carboxylic acid | 32.9% | 68.5% | 
12 | (2S,3S,4S,5R,6S)-6-(2-((R,E)-17-amino-16-(2,5-dioxopyrrolidin-1-yl)-8,12-dioxo-4,13-dioxa-3,7,11-triazaheptadec-2-en-2-yl)-4-((5S,8S,11S,12R)-11-((S)-sec-butyl)-12-(2-((S)-2-((1R,2R)-3-(((1S,2R)-1-hydroxy-1-phenylpropan-2-yl)amino)-1-methoxy-2-methyl-3-oxopropyl)pyrrolidin-1-yl)-2-oxoethyl)-5,8-diisopropyl-4,10-dimethyl-3,6,9-trioxo-2,13-dioxa-4,7,10-triazatetradecyl)phenoxy)-3,4,5-trihydroxytetrahydro-2H-pyran-2-carboxylic acid |  | 53.9% | 
13 | (2S,3S,4S,5R,6S)-6-(2-(((S)-42-(3-((((R)-4-amino-3-(2,5-dioxo-2,5-dihydro-1H-pyrrol-1-yl) butoxy)carbonyl)amino)propanamido)-39,43-dioxo-2,5,8,11,14,17,20,23,26,29,32,35-dodecaoxa-38,44-diazahexatetracontan-46-yl)carbamoyl)-4-((5S,8S,11S,12R)-11-((S)-sec-butyl)-12-(2-((S)-2-((1R,2R)-3-(((1S,2R)-1-hydroxy-1-phenylpropan-2-yl)amino)-1-methoxy-2-methyl-3-oxopropyl)pyrrolidin-1-yl)-2-oxoethyl)-5,8-diisopropyl-4,10-dimethyl-3,6,9-trioxo-2,13-dioxa-4,7,10-triazatetradecyl)phenoxy)-3,4,5-trihydroxytetrahydro-2H-pyran-2-carboxylic acid |  | 48.7% | 
14 | (2S,3S,4S,5R,6S)-6-(2-((2-((((R)-4-amino-3-(2,5-dioxo-2,5-dihydro-1H-pyrrol-1-yl) butoxy)carbonyl)amino)ethyl)carbamoyl)-4-((5S,8S,11S,12R)-11-((S)-sec-butyl)-12-(2-((S)-2-((1R,2R)-3-(((1S,2R)-1-hydroxy-1-phenylpropan-2-yl)amino)-1-methoxy-2-methyl-3-oxopropyl)pyrrolidin-1-yl)-2-oxoethyl)-5,8-diisopropyl-4,10-dimethyl-3,6,9-trioxo-2,13-dioxa-4,7,10-triazatetradecyl)phenoxy)-3,4,5-trihydroxytetrahydro-2H-pyran-2-carboxylic acid |  | 54.2% | 
